From ChEMBL document CHEMBL3988442, “University of Dundee, Small-Polar-MMV Screening Library” (2021).

Protein sequences, listed by entry. Tags and fused reporters are not part of them. Residues count along the entry.
UniProt Q4DA54, 1-478: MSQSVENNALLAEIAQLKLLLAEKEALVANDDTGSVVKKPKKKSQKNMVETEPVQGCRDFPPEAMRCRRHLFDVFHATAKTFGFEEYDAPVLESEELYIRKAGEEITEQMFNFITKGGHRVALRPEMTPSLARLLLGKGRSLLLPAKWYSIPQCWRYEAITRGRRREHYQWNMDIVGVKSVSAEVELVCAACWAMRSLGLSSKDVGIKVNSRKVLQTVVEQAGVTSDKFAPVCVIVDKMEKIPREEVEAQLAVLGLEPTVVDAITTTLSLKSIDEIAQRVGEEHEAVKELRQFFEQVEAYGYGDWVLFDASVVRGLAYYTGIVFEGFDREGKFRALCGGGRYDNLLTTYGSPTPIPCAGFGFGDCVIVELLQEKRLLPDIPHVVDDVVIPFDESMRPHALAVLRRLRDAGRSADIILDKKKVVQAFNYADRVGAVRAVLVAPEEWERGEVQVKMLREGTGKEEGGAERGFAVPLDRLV
UniProt Q8IDJ8, 1-583: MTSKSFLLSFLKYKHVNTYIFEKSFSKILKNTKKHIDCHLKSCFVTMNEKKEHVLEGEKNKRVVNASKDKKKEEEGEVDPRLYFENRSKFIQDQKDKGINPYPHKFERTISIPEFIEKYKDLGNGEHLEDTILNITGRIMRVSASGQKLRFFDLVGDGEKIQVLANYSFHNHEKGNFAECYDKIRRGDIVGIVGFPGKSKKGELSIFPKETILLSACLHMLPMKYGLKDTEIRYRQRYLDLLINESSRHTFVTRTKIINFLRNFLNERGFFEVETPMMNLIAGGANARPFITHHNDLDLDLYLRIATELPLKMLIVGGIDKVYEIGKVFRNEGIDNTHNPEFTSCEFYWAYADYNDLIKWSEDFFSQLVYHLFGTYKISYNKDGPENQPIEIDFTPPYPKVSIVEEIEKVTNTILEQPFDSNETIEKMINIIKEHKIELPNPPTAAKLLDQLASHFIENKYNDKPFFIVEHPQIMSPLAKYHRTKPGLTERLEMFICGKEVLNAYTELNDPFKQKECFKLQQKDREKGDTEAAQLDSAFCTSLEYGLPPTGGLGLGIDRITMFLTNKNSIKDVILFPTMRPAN

Results are given as percent effect.
The record does not define 0% and 100%; most values in the screen are far below 50% and negative numbers occur (in some assays of this library far below -100).
This is an unselected part of the compounds tested.

TcHisRS: 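Histidine-tRNA ligase, Trypanosoma cruzi CL Brener (UniProt Q4DA54). Enzyme assay of histidyl-tRNA synthetase; the read-out is not stated. Concentration: 30 µM. Higher reads as stronger inhibition (inferred: compounds with an IC50 in retests scored well above the rest). About 69,000 compounds were tested under these conditions; 0.045% (about 31) showed 50% or more at least once.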
PfKRS1: 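Enzyme assay of the cytosolic lysyl-tRNA synthetase in 384-well plates, read by luminescence. Target: Lysine-tRNA ligase, Plasmodium falciparum 3D7 (UniProt Q8IDJ8). Compounds at 30 µM. Higher reads as stronger inhibition, judged from the few compounds that gave an IC50. About 69,000 compounds were tested under these conditions; 0.071% (about 49) showed 50% or more at least once.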

* Cc1nc(CNC(=O)NCC(O)c2ccccc2)cs1 (configuration not stated) | TcHisRS: 6.433%; PfKRS1: 3.309%
* Cc1nn(C)c(Cl)c1C1CCCN1c1ncnc2sccc12 (configuration not stated) | TcHisRS: 2.905%; PfKRS1: 3.293%
* CNC(=O)COc1ccc(CNCc2ccc(F)cc2F)cc1 | TcHisRS: 8.943%; PfKRS1: 2.873%
* O=C(c1cn(-c2cccc(Cl)c2F)nn1)N1CCCSCC1 | TcHisRS: 8.434%; PfKRS1: 5.676%
* CCOC(=O)CCNC(=O)N1CCCC(CNC(=O)c2cccs2)C1 (configuration not stated) | TcHisRS: 6.667%; PfKRS1: -0.4798%
* CCN(CC)C(=O)CN(C)C(=O)c1cccn1CCc1ccccc1 | TcHisRS: 3.614%; PfKRS1: 2.375%
* Cc1c(C2CCCN(C(=O)c3ccncc3)C2)n2c(nc1=O)CCC2 (configuration not stated) | TcHisRS: -1.064%; PfKRS1: 5.181%
* Cc1nc(Nc2ncccn2)cc(C2CN(C(=O)c3cccnc3)C2)n1 | TcHisRS: 1.498%; PfKRS1: 2.472%
* CCCC(=O)N(C)Cc1cccc(OC(C)C)c1 | TcHisRS: 6.897%; PfKRS1: -1.895%
* Cc1ccccc1CN1CCN(CC(=O)Nc2cccnc2)CC1 | TcHisRS: 1.887%; PfKRS1: 4.066%
* CCCS(=O)(=O)N1CCC2(CC1)CN(CC1CCOC1)c1ccccc12 (configuration not stated) | TcHisRS: 13.76%; PfKRS1: 4.37%
* CCc1noc(-c2cccc(OCC(=O)NC(C)C)c2)n1 | TcHisRS: 11%; PfKRS1: 6.339%
* COCCN1CCC(C)(c2cc(O)[nH]n2)CC1 | TcHisRS: 11.88%; PfKRS1: 6.062%
* COc1cccc(C(=O)N2CCC3(CCC(=O)N(C(C)C)C3)CC2)c1C | TcHisRS: 8.889%; PfKRS1: 4.833%
* CN(C)C(C(=O)NC1(CO)CCCC1)c1ccc(F)cc1 (configuration not stated) | TcHisRS: 6.18%; PfKRS1: 0.4855%
* CCc1nc(N2CCCC(CCOC)(C(=O)O)C2)ncc1C (configuration not stated) | TcHisRS: 7.143%; PfKRS1: -4.221%
* CC(C)c1cc(C(=O)N2CCOCC2CC(=O)c2ccco2)nn1C (configuration not stated) | TcHisRS: 6.533%; PfKRS1: 1.593%
* Cc1cnn(CC2CCCN2C(=O)c2cccc(S(C)(=O)=O)c2)c1 (configuration not stated) | TcHisRS: 1.744%; PfKRS1: -2.39%
* CC(C)N1CCn2c(nc3cc(C(N)=O)ccc32)C1 | TcHisRS: 2.732%; PfKRS1: 0.03499%
* CNCCNc1ccc(-c2nc(-c3cccc(OC)c3OC)no2)cn1 | TcHisRS: 10.06%; PfKRS1: 9.276%
* CN(C)CCN1CCC2(CCN(C(=O)c3ccc(F)cc3)CC2)C1=O | TcHisRS: 7.519%; PfKRS1: 5.096%
* N#Cc1ncn(CCC(=O)Nc2ccc(Cl)cc2F)n1 | TcHisRS: 6.612%; PfKRS1: 4.836%
* Cc1ncccc1Oc1ncnc(N2CCC3(CCCO3)CC2)c1C | TcHisRS: 1.754%; PfKRS1: 4.191%
* CC(C)c1nn(C)c(N(C)C)c1CNC1CCN(C2CC2)CC1 | TcHisRS: 10.59%; PfKRS1: 3.083%
* CN(C)c1ncc(CN2CCOC(C(=O)Nc3ccccc3)C2)cn1 (configuration not stated) | TcHisRS: 0.5464%; PfKRS1: 3.396%
* CCN(CC)S(=O)(=O)c1ccc(CNC(=O)c2cc(C)on2)cc1 | TcHisRS: 4.762%; PfKRS1: 2.121%
* CS(=O)(=O)N1CC[C@H]2O[C@H](C(=O)NCc3cccnc3)CC[C@H]21 | TcHisRS: 1.961%; PfKRS1: 5.626%
* Cc1ccc(-c2cc(C(=O)N3CCCC3c3cccnc3)[nH]n2)o1 (configuration not stated) | TcHisRS: 3.061%; PfKRS1: 6.985%
* C[C@H]1C[C@H]2CN(Cc3ccccn3)CC[C@@H]2O1 | TcHisRS: 10.92%; PfKRS1: 5.617%
* Cc1ccc(C(N)=O)c(N2C[C@H]3OC(=O)N(C4CCCC4)[C@H]3C2)n1 | TcHisRS: 9%; PfKRS1: 1.815%
* O=C(CN1CCC(OCC2CCCO2)CC1)NCC(F)(F)F (configuration not stated) | TcHisRS: 10%; PfKRS1: 2.256%
* c1cnnc(N2CCCC(NCc3nc(-c4cccs4)no3)C2)c1 (configuration not stated) | TcHisRS: 8.929%; PfKRS1: 1.379%
* O=C(COC1CCCC1)N1CCCN(c2ncccn2)CC1 | TcHisRS: 1.724%; PfKRS1: 7.064%
* CC(NC(=O)CCCC(=O)c1cccs1)c1nnc2n1CCC2 (configuration not stated) | TcHisRS: 0%; PfKRS1: 8.736%
* Cc1ccc(CCCC(=O)N2CCC(CS(N)(=O)=O)CC2)s1 | TcHisRS: 0%; PfKRS1: 2.835%
* Cc1cc(C)n(CC2CCCCN2C(=O)c2cnn(C)c2)n1 (configuration not stated) | TcHisRS: -3.396%; PfKRS1: -1.448%
* CCc1ccc(NC(=O)c2cnc(N3CCN(C)CC3)nc2C)cc1 | TcHisRS: -1.087%; PfKRS1: -1.926%
* COc1cnc(N2CCCC(c3ncc[nH]3)C2)nc1 (configuration not stated) | TcHisRS: 2.618%; PfKRS1: 4.765%
* Cn1cc(-c2nc(CNCCn3cccn3)cs2)cn1 | TcHisRS: -1.527%; PfKRS1: -3.798%
* CN1CCN([C@@H]2CN(C(=O)c3ccnnc3)[C@@H]3CCCO[C@H]23)CC1 | TcHisRS: 3.448%; PfKRS1: -0.04563%
* Nc1nc(CN2CCOC(Cn3cccn3)C2)nc2ccccc12 (configuration not stated) | TcHisRS: 7.872%; PfKRS1: 0.4335%
* CC(C)OCc1noc(C2CC=CC2)n1 | TcHisRS: 7.328%; PfKRS1: 3.019%
* CNC(=O)CCc1cc(C2CCNCC2)nc(C)n1 | TcHisRS: 6.667%; PfKRS1: 5.873%

The last 5 entries again:

| Compound | TcHisRS | PfKRS1 |
|---|---|---|
| `Cn1cc(-c2nc(CNCCn3cccn3)cs2)cn1` | -1.527 | -3.798 |
| `CN1CCN([C@@H]2CN(C(=O)c3ccnnc3)[C@@H]3CCCO[C@H]23)CC1` | 3.448 | -0.04563 |
| `Nc1nc(CN2CCOC(Cn3cccn3)C2)nc2ccccc12` (configuration not stated) | 7.872 | 0.4335 |
| `CC(C)OCc1noc(C2CC=CC2)n1` | 7.328 | 3.019 |
| `CNC(=O)CCc1cc(C2CCNCC2)nc(C)n1` | 6.667 | 5.873 |